Measurements: US10299502B2, “Method for producing an extract of a matrix of vegetable origin with a non-ionic amphiphilic compound as extraction adjuvant in an aqueous medium” (PIERRE FABRE DERMO-COSMETIQUE, priority 2015, dated 2019)

Assay: Extraction of α-mangostin from mangosteen pericarps with aqueous solutions of amphiphilic compound
Design: species or system Garcinia mangostana
Source text: These values are necessary to implement the extraction method, such as for example the extraction of α-mangostin from mangosteen pericarps:
At 25% APXC4, the active substance content extracted from mangosteen pericarps is equivalent to that obtained by ethyl acetate reflux extraction, which is not the case at 5% (concentration below the MHC).

## CC(C)(O)CCO [Isopentyldiol, 3-methyl-1,3-butanediol]
Compound concentration 59%
  g of α-mangostin extracted % g of plant: 6.59 g % g of plant

## CCOC(C)=O [AcOEt, ethyl acetate, reference compound]
Concentration 100%, ethyl acetate reflux extraction
  g of α-mangostin extracted % g of plant: 7.49 g % g of plant

## amyl xyloside
Compound concentration 40%
  g of α-mangostin extracted % g of plant: 7.30 g % g of plant
